# Data taken from PubChem BioAssay AID540276 (National Center for Advancing Translational Sciences (NCATS), 2011).
# Values joined by “and” are separate entries in the source; they are usually repeats but may differ in a detail not shown here. Equal entries are not always repeated. The campaign covered roughly 300,000 compounds. About 5,400 (1.8%) were called active. This list was built around the results that the source calls inconclusive (neither active nor inactive); the mix of calls is not that of the screen. The call rests on the fitted dose curve; tested in HEK293 cells. A potency beside an inconclusive call is a rough fit, not a confirmed value.
# Assay: qHTS for inhibitors of binding or entry into cells for Marburg Virus
# Settings: Marburg virus pseudotyped entry inhibition, cell reporter; activity change, negative = inhibition: at 37.8 µM (top of the series) unless noted
# On the % scale 0 is the no-effect control and ±100 the full control effect; potency means the concentration at half of the fitted maximal effect.
SMILES,"activity change, negative = inhibition",Potency
CC12C=C(/C=C/c3ccc(Br)cc3)C(C)(C1)C(c1ccc(Br)cc1)CC2=O (configuration not stated),inactive: -25.8% [at 14.2 µM],–
CCC(=O)N1CCN(c2nc3ccccc3s2)CC1,inactive: -12%,–
O=C(O)C(F)=C(c1ccccc1)c1ccccc1,–,"inconclusive: 2 µM [inhibitor, partial curve, poor fit]"
CSc1ncccc1C(=O)OCc1cccc([N+](=O)[O-])c1,–,"inconclusive: 35.5 µM [activator, single point]"
COc1ccc(CCNC(=O)c2cc3c(=O)n(C)c4ccccc4c3s2)cc1OC,inactive: 2.9% [at 46.1 µM],–
CCOc1ccc2nc(SCC(=O)Nc3ccc4c(c3)OCO4)sc2c1,–,"inconclusive: 32.6 µM [activator, single point]"
O=C(O)/C=C\C(=O)Nc1cccc(C(=O)Nc2cccc(O)c2)c1,–,"inconclusive: 31.6 µM [activator, partial curve, poor fit]"
O=C(c1ccco1)N1CCN(Cc2ccc(F)cc2Cl)CC1,inactive: 25.3%,–
CN(Cc1ccccc1)C(=O)CN1C(=O)NC2(CCCCCCC2)C1=O,–,"inconclusive: 0.1 µM [activator, full curve, poor fit]"
Cc1ccc(/C=C/C2=NN(C)C(=O)CC2)cc1,–,"inconclusive: 2.82 µM [activator, partial curve, poor fit]"
Cc1c(N2C(=O)/C(=C\C3CC=CCC3)SC2=S)c(=O)n(-c2ccccc2)n1C (configuration not stated),–,"inconclusive: 35.5 µM [inhibitor, single point]"
Cc1ccc(C)c(Cn2nc(-c3ccccc3)ccc2=O)c1,–,"inconclusive: 17.8 µM [inhibitor, partial curve, poor fit]"
CCc1ccccc1NC(=O)CCC(=O)N1CC(C)Oc2ccc(C)cc21 (configuration not stated),inactive: -3.57% [at 46.1 µM],–
CN(CC(O)COc1c(F)cc(Br)cc1F)C1CCCCC1 (configuration not stated),–,"inconclusive: 7.31 µM [inhibitor, partial curve, poor fit]"
C/C(=N\NC(=O)c1ccc(CSc2cccc3cccnc23)cc1)C1CCCCC1,–,"inconclusive: 17.8 µM [activator, single point]"
COc1ccc(NC(=O)OC(CN2CCCCC2)C(F)(F)F)cc1 (configuration not stated),inactive: 2.66%,–
CCOc1ccc(-n2c(SCC(=O)Nc3ccc(CC)cc3)nc3n[nH]c(C)c3c2=N)cc1,–,"inconclusive: 11.2 µM [inhibitor, partial curve, poor fit]"
CCc1cc2c(cc3c(=O)n(CC(=O)N4CCN(c5cccc(C)c5C)CC4)nc(CC)n32)s1,–,"inconclusive: 35.5 µM [inhibitor, single point]"
COc1ccccc1OCC(=O)Nc1nc(-c2ccc(S(=O)(=O)N3CCOCC3)cc2)cs1,–,"inconclusive: 35.5 µM [inhibitor, single point]"
C=CCNc1nc(-c2ccc(Cl)cc2)cs1,inactive: -9.49%,–
CCCCN(CC)CCCNC(=O)c1cn(CC)c2ccc(S(=O)(=O)N3CCc4ccccc4C3)cc2c1=O,–,"inconclusive: 35.5 µM [inhibitor, single point]"
COc1cccc(-c2nnc(NC(=O)c3ccc4ncsc4c3)o2)c1,–,active: 10 µM
CC(C)(CO)N=C1NS(=O)(=O)c2cc([N+](=O)[O-])ccc21,inactive: -11.6%,–

SMILES,"activity change, negative = inhibition",Potency
O=C(/C=C/c1ccc(Cl)cc1)N1CCC(c2nc3ccccc3o2)CC1,–,"inconclusive: 35.5 µM [activator, single point]"
CC1CN/C(=C\C(=O)c2ccc(Cl)cc2)C(=O)N1 (configuration not stated),–,"inconclusive: 11.6 µM [inhibitor, partial curve, poor fit]"
Cc1cccc(OCCC(=O)Nc2ccc(F)c(Cl)c2)c1,–,"inconclusive: 1 µM [activator, full curve]"
COc1ccc(Cl)cc1NC(=O)C(=O)NC1CCCCCC1,–,"inconclusive: 0.112 µM [activator, full curve, poor fit]"
O=c1c2sc3nc(N4CCOCC4)c4c(c3c2ncn1-c1ccccc1)CCCC4,–,"inconclusive: 35.5 µM [inhibitor, single point]"
CC(=O)Nc1ccc(NS(=O)(=O)c2cccc3nonc23)cc1,inactive: 0.543% [at 46.1 µM],–
CCc1ccccc1NC(=S)N(CCN1CCOCC1)Cc1ccccc1F,–,"inconclusive: 31.6 µM [inhibitor, single point]"
Cc1ccc(Nc2nnc(SC(C)C(=O)NCC3CCCO3)s2)cc1 (configuration not stated),inactive: -32.2%,–
O=C(O/N=C\c1ccc(N2CCOCC2)c([N+](=O)[O-])c1)c1ccccc1Cl,inactive: -0.538%,–
O=C(CN1C(=O)C2CCCCN2C(=O)c2ccccc21)N1CCCc2ccccc21 (configuration not stated),inactive: -3.97%,–
O=C(N/N=C/c1cccc(O)c1)c1cc(C2CC2)nc2ccccc12,–,"inconclusive: 31.6 µM [inhibitor, single point]"
COc1ccccc1-c1cc(C(=O)Nc2cc(C)on2)no1,inactive: -3.97%,–
COc1ccc(-c2nsc3c(N4CCN(C(=O)c5ccco5)CC4)ncnc23)cc1,inactive: -4.04%,–
COC(=O)c1c(C)[nH]c(C(=O)OCC(=O)c2ccc(C)s2)c1C,–,"inconclusive: 11.2 µM [inhibitor, single point]"
CN(C)c1ccc(SC#N)cc1,inactive: 22.4%,–
O=C(OCc1ccccc1)/C(=C/c1cccc(Br)c1)NC(=O)c1ccco1,–,"inconclusive: 35.5 µM [inhibitor, single point]"
Cc1sc2ncn(CC(=O)N(C)c3ccc(C(C)C)cc3)c(=O)c2c1S(=O)(=O)N1CCC(C)CC1,inactive: 9.98% [at 46.1 µM],–
COc1cc(C2(c3ccc(O)c(OC)c3)C(=O)Nc3c(C)cc(Br)cc32)ccc1O,–,"inconclusive: 10 µM [inhibitor, partial curve, poor fit]"
COc1ccc(C)cc1NC(=O)C(OC(=O)CNC(=O)c1cc(C)cc(C)c1)c1ccccc1 (configuration not stated),–,"inconclusive: 0.231 µM [activator, single point]"
CCOC(=O)N1CCN(C(=O)c2c[nH]c3ccc(S(=O)(=O)N(C)c4ccc(OCC)cc4)cc3c2=O)CC1,–,"inconclusive: 4.47 µM [activator, partial curve]"
CCOc1ccc(C(=O)NCc2ccco2)cc1,–,"inconclusive: 23.1 µM [activator, single point]"
CCOC(=O)c1c(C)nc2ccc(Cl)cc2c1-c1ccccc1,–,"inconclusive: 0.355 µM [activator, partial curve, poor fit]"
C[C@@H]1O[C@@H](O[C@H]2C[C@@H](O)[C@]3(CO)[C@H]4[C@H](O)C[C@]5(C)[C@@H]([C@@H]6COC(=O)C6)CC[C@]5(O)[C@@H]4CC[C@]3(O)C2)[C@H](O)[C@H](O)[C@H]1O,–,active: 0.316 µM

# Of the compounds above, these contain a furan ring, fused or not.
SMILES,"activity change, negative = inhibition",Potency
O=C(c1ccco1)N1CCN(Cc2ccc(F)cc2Cl)CC1,inactive: 25.3%,–
COc1ccc(-c2nsc3c(N4CCN(C(=O)c5ccco5)CC4)ncnc23)cc1,inactive: -4.04%,–
O=C(OCc1ccccc1)/C(=C/c1cccc(Br)c1)NC(=O)c1ccco1,–,"inconclusive: 35.5 µM [inhibitor, single point]"
CCOc1ccc(C(=O)NCc2ccco2)cc1,–,"inconclusive: 23.1 µM [activator, single point]"

# Full records, looked up by structure:
# CC1CN/C(=C\C(=O)c2ccc(Cl)cc2)C(=O)N1 (configuration not stated) is listed with Potency: inconclusive: 11.6 µM [inhibitor, partial curve, poor fit]
# CCOC(=O)N1CCN(C(=O)c2c[nH]c3ccc(S(=O)(=O)N(C)c4ccc(OCC)cc4)cc3c2=O)CC1 is listed with Potency: inconclusive: 4.47 µM [activator, partial curve]

# The results go on.

SMILES,"activity change, negative = inhibition",Potency
COc1ccccc1CNC(=O)c1cccc2c1C(=O)N(Cc1cccnc1)C2,–,"inconclusive: 7.3 µM [inhibitor, partial curve, poor fit]"
COC(=O)c1c(NC(=O)CSc2nnc(-c3ccco3)n2Cc2ccccc2)sc(C)c1C,–,"inconclusive: 8.91 µM [inhibitor, partial curve, poor fit]"
Cc1ccc(-n2cc(CNCCc3ncc(C)[nH]3)c(-c3ccc(F)cc3)n2)cc1,–,"inconclusive: 7.08 µM [inhibitor, full curve, poor fit]"
Cc1cc(C(=O)Nc2cccc3ncccc23)no1,–,"inconclusive: 7.3 µM [activator, partial curve]"
CC(=O)N(C)c1nnc(-c2cnccn2)s1,inactive: -1.41%,–
COc1ccccc1NC(=O)/C=C/c1ccc(OC)c(S(=O)(=O)N2CCOCC2)c1,inactive: 18.7% [at 46.1 µM],–
Cc1ccc(C(=O)NC(=S)Nc2cc(-c3nc4ccccc4s3)ccc2C)cc1,–,"inconclusive: 3.55 µM [activator, partial curve, poor fit]"
Cc1ccc(-c2ccccc2NC(=O)CS(=O)CC(=O)Nc2ccc(C)c(Cl)c2)o1 (configuration not stated),–,"inconclusive: 35.5 µM [inhibitor, single point]"
O=C(O)CSc1nc2ccc(NC(=O)COc3ccc(Cl)cc3)cc2s1,inactive: 3.8% [at 46.1 µM],–
Cc1cc(N2C(=O)c3ccccc3C2=O)n(C)n1,–,"inconclusive: 3.55 µM [inhibitor, single point]"
CC(C)Oc1ccccc1NC(=O)CSc1nccn1C,–,"inactive and inconclusive: 631 nM [inhibitor, full curve, poor fit]"
CC(C)c1ccc(C(=O)NC(=S)NCc2cccnc2)cc1,inactive: -18.9%,–
OCCCn1c(-c2ccc(F)cc2)csc1=Nc1ccc(F)cc1,–,"inconclusive: 7.94 µM [inhibitor, partial curve, poor fit]"
COC(=O)c1ccccc1NC(=O)c1cccc(COc2ccccc2Cl)c1,–,"inconclusive: 11.2 µM [inhibitor, partial curve, poor fit]"
COc1ccc(N(Cc2ccccc2)C(=O)CSc2nnc(Cn3nnc4ccccc43)o2)cc1,–,"inconclusive: 4.47 µM [inhibitor, partial curve, poor fit]"
CC(C)C(=O)N1CCN(c2ccc(NC(=O)c3ccco3)cc2Cl)CC1,inactive: 13.5% [at 46.1 µM],–
NS(=O)(=O)c1ccc(CCNC(=O)COC(=O)CC(c2ccccc2)c2ccccc2)cc1,–,"inconclusive: 12.6 µM [inhibitor, partial curve, poor fit]"
CCSc1nnc(NC(=O)[C@@H](NC(=O)c2ccccc2F)C(C)C)s1,inactive: 9.64% [at 46.1 µM],–
CC12CCC(=O)N1C(C(=O)Nc1ccccc1N1CCOCC1)CS2 (configuration not stated),–,"inconclusive: 3.16 µM [inhibitor, single point]"
CC(C)(C)OC(=O)N1CCCC(C(=O)Nc2cccc(C(=O)NCCCCc3ccccc3)c2)C1 (configuration not stated),–,"inconclusive: 0.628 µM [activator, full curve]"
CC(=Nc1ccc(C)c(C)c1)C1=C(O)CCC1=O,–,"inconclusive: 25.1 µM [activator, single point]"
